# Experimental data: paper PMC6400584, “Activation mechanism of ATP-sensitive K^+ channels explored with real-time nucleotide binding” (eLife, 2019)
# Columns and labels:
# [1] = tested on: SUR1-T1397*/Kir6.2; experiment: Current inhibition in inside-out patches in the absence of Mg2+; assay type: biochemical, Homo sapiens
# Experimental: (§1) Currents were recorded from inside-out membrane patches excised from transfected HEK-293T cells. Pipettes were pulled to a resistance of 1–5 MΩ and filled with an extracellular solution containing (in mM) 140 KCl, 1.2 MgCl2, 2.6 CaCl2, and 10 HEPES, pH 7.4 or 140 KCl, 1 EGTA, 10 HEPES, pH 7.3. The intracellular (bath) solutions contained either (in mM) 107 KCl, 2 MgCl2, 1 CaCl2, 10 EGTA, and 10 HEPES, pH 7.2 for experiments showing nucleotide-dependent activation or 140 KCl, 1 EDTA, 1 EGTA, 10 HEPES pH 7.3 for experiments showing nucleotide-dependent inhibition. Nucleotides were added as indicated. Patches were perfused with an 8-channel µFlow perfusion system. Data were acquired at a holding potential of −60 mV using an Axopatch 200B amplifier and Digidata 1322A digitizer with pClamp 9.0 software (Molecular Devices). Currents were digitized at 10 kHz and low-pass filtered at 1 kHz. KATP channels run down in excised patches (reviewed by Proks et al.) ([Proks et al., 2016]). For inhibitory concentration-response relationships, rundown was corrected by alternating test nucleotide solutions with nucleotide-free (control) solutions and expressing the test currents as a fraction of the average of the control currents before and after the test solution. […]
# [2] = tested on: T1, SUR1-T1397*/Kir6.2-G334D; experiment: Current activation in inside-out patches; assay type: biochemical, Homo sapiens
# T1 construct: confirmed that >95% of SUR1-T1397* was full length; expressed in transfected cells; host or cells: HEK-293T
# Experimental: as §1
SMILES,h ([1]; Equation 4 fit to combined data),h ([1]; mean ± SEM of fits of Equation 4 to individual experiments),h (current activation) ([2]; Equation 5 fit to combined data),h (current activation) ([2]; mean ± SEM of fits of equation 5 to individual experiments)
Nc1ncnc2c1ncn2[C@@H]1O[C@H](COP(=O)(O)OP(=O)(O)OP(=O)(O)O)[C@@H](O)[C@H]1O [ATP],−1.1 ± 0.1,−1.2 ± 0.1,–,–
Nc1ncnc2c1ncn2[C@@H]1O[C@H](COP(=O)([O-])OP(=O)([O-])O)[C@@H](O)[C@H]1O.[Mg+2] [MgADP],–,–,1.2 ± 0.2,1.5 ± 0.3
